The target in the test is purified recombinant human FRΔ (human). In words: western blot of 0.5 µg purified protein per lane, reduced and nonreduced, SDS-PAGE. A general note: Immunoblotting shows a protein as a band on a membrane.

No constants are given. Whether binding was seen depends on the method and setting.

B1: Monoclonal antibody 24F12.B1 (antibody, mouse IgG1, V domains shown)
VH: SGGGLVRPGGSLKLSCAASGFTFSSYAMSWVRQSPEKRLEWVAEIGSGGSYTYYPDTVTGRFTISRDNAKSTLYLEMSSLRSEDTAIYYCARETTAGYFDYWGQGTTLTVSS
VL: TSSLSASLGDRVTISCSASQGINNFLNWYQQKPDGTVKLLIYYTSSLHSGVPSRFSGSGSGTDYSLTISNLEPEDIAIYYCQHFSKLPWTFGGGTKLEIKR
Regarding B1, the binding entry is recorded as “no binding (tested: 1 µg/mL)”.

B2: Monoclonal antibody 26B3.F2 (antibody, mouse IgG1, V domains shown)
VH: GPELVKPGASVKISCKASDYSFTGYFMNWVMQSHGKSLEWIGRIFPYNGDTFYNQKFKGRATLTVDKSSSTAHMELRSLASEDSAVYFCARGTHYFDYWGQGTTLTVSS
VL: PASLSASVGETVTITCRTSENIFSYLAWYQQKQGISPQLLVYNAKTLAEGVPSRFSGSGSGTQFSLKINSLQPEDFGSYYCQHHYAFPWTFGGGSKLEIKR
On to B2, for which the binding entry was “no binding (tested: 1 µg/mL)”.

B3: Monoclonal antibody 19D4.B7 (antibody, mouse IgG2a, V domains shown)
VH: GAELVKPGASVKLSCTASGFNIKHPYMHWVKQRPDQGLEWIGRIDPANGNTKYDPKFQGKATITADTSSNTAYLQLSSLTSEDTAVYYCGREEVADYTMDYWGQGTSVTVSS
VL: PASLAVSLGQRATISCRASESVDTYGNNFIHWYQQKPGQPPKLLIYLASNLESGVPARFSGSGSRTDFTLTIDPVEADDAATYYCQQNNGDPWTFGGGTKLEIKR
Regarding B3, the binding result is “no binding (tested: 1 µg/mL)”.

B4: Monoclonal antibody 9F3.H9.H3.H3.B5.G2 (antibody, mouse IgG2a, V domains shown)
VH: ESGPGLVRPSQSLSLTCSVTGYSITSGYYWNWIRQFPGSRLEWMGYIKSDGSNNYNPSLKNRISITRDTSKNQFFLKLNSVTTEDTATYFCTREWKAMDYWGQGTSVTVSS
VL: PAIMSASPGEKVTMTCRASSTVSYSYLHWYQQKSGASPQLWIYGTSNLASGVPARFSGSGSGTSYSLTISSVEAEDAATYYCQQYSGYPLTFGAGTKLELKR
For the molecule B4, the binding result is listed as “no binding (tested: 1 µg/mL)”.

The values are drawn from US20170168078A1.
